Results: patent US20150306112A1 (National Cheng Kung University, priority 2014, published 2015)
At least one compound was matched to its structure with a doubt left.

Tested on: Con A-induced liver injury
Test: Con A-induced hepatitis in mice
Assay type: in vivo, C57BL/6 mice
Conditions: dexamethasone 1 mg/kg i.p. 1 h prior to Con A
Protocol: FIG. 4. […] (A) Representative microphotographs showing liver and spleen histopathologic changes with hematoxylin-and-eosin-staining (original magnification ×200). (B) The necrosis was analysed with a four-point score: 0, no; 1, 1-20% necrosis; 2, 20-40% necrosis; 3, >40% necrosis. Infiltration of leukocytes was graded on a four-point severity scale: 0, none; 1, little; 2, moderate; 3, mass. (C) Serum ALT and AST activities were measured at 8 h after Con A injection. (D) Serum levels of IFN-γ, IL-6 and IL-4 were measured at 8 h after Con A injection by ELISA. (E) Proteins from liver and spleen tissues of vehicle, ZAA and dexamethasone-treated mice were extracted and subjected to immunoblot. Values are shown as mean±S.E.M. from individual mice (n=10-13 mice/group). ***P<0.001,**P<0.01, *P<0.05 as compared with vehicle-treated mice. Similar results were obtained in at least three independent experiments.
The positive control animals with Con A-induced hepatitis were given the same amount of solvent (0.2% cyclodextrin) i.p., without any drugs. Blood samples were collected from each group for plasma transaminase activities and cytokine expression level determination. […]
Liver injury was quantified by determination of alanine aminotransferase (ALT) and aspartate aminotransferase (AST) activities in serum, according to the Reitman-Frankel method.

C[C@@H]1C[C@H]2[C@@H]3CCC4=CC(=O)C=C[C@]4(C)[C@@]3(F)[C@@H](O)C[C@]2(C)[C@@]1(O)C(=O)CO [dexamethasone, reference compound]
Con A-induced acute hepatitis: significantly attenuated
